{
  "source": "PubChem BioAssay AID1347075",
  "about": "(National Center for Advancing Translational Sciences (NCATS), 2019)",
  "note": "The whole screen tested about 400,000 compounds, of which about 5,500 (1.4%) were called active. Inconclusive means that the source gave no clear call. Such entries were picked first, then a sample of the others. The call rests on the fitted dose curve; in most records, active means well fitted cell-killing curve with a large enough effect; inconclusive means small, poorly fitted or top-dose-only effect, or effect the other way; inactive means flat fitted curve, though single readings scatter. A potency beside an inconclusive call is a rough fit, not a confirmed value. Potency means the concentration at half of the fitted maximal effect.",
  "data": [
    {"assay": "qHTS assay for MDR1-selective chemotherapeutics: Primary screen using the parental adenocarcinoma cell KB-3-1; further: nearly all actives have a fitted effect of over 60% in size", "conditions": "KB-3-1 viability, CellTiter-Glo ATP luminescence, 72 h; series mostly up to 46.1 µM", "summary_of_the_method": "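Cells are dispensed, compounds pinned in, plates held at 37 °C for 72 h, then CellTiter-Glo is added and luminescence read after 10 minutes. Cell line: parental KB-3-1 in phenol-red-free DMEM, 10% FBS.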", "values": [
      {"smiles": "COc1cccc(Nc2nc(NCC3CCCO3)c3ccccc3n2)c1", "note": "(stereo not drawn)", "Potency": "inconclusive: 25.9 µM [cytotoxic, partial curve, poor fit]"},
      {"smiles": "COc1cccc(C(C)(O)c2nc(-c3cccc(C(C)C)c3)cs2)c1", "note": "(stereo not drawn)", "Potency": "inactive"},
      {"smiles": "CCCOC(=O)c1ccc(Oc2cn[nH]c2-c2ccc(O)cc2O)cc1", "Potency": "inconclusive: 16.4 µM [cytotoxic, partial curve, poor fit]"},
      {"smiles": "CCOC(=O)c1nn(-c2ccccc2)c2nnc(Cc3ccccc3)c(=O)n12", "Potency": "inconclusive: 29.1 µM [rising, single point]"},
      {"smiles": "CCOC(=O)C1CCN(C(=O)CSc2ccc(Br)cc2)CC1", "Potency": "inactive"},
      {"smiles": "Cn1c(=O)c2nc(NCc3ccccc3)cnc2n(C)c1=O", "Potency": "inactive"},
      {"smiles": "COc1cc(/C=C/C(=O)O)cc(S(=O)(=O)Nc2ccccc2C(=O)NCc2ccco2)c1OC", "Potency": "inconclusive: 5.17 µM [rising, partial curve]"},
      {"smiles": "CC(=O)c1ccc(NC(=O)NC2CCCCCCC2)cc1", "Potency": "inactive"},
      {"smiles": "CC(=O)N1CCc2c(sc3c2c(=O)n(CCc2ccccc2)c(=O)n3Cc2ccc(F)cc2)C1", "Potency": "inconclusive: 23.1 µM [cytotoxic, single point]"},
      {"smiles": "CC(C)[C@@H](NC(=O)OC(C)(C)C)c1cc(C(=O)c2c(-c3ccccc3)[nH]c3ccccc23)c(N)s1", "Potency": "inconclusive: 29.1 µM [cytotoxic, single point]"},
      {"smiles": "Cc1ccc2nc3c(cc2c1)CN(Cc1ccco1)C(=NCC1CCCO1)S3", "note": "(stereo not drawn)", "Potency": "inconclusive: 23.1 µM [cytotoxic, single point]"},
      {"smiles": "Nc1ccc(C(=O)NN2C(=O)[C@H](Cl)C2c2ccc(Cl)cc2)cc1", "note": "(stereo partly drawn)", "Potency": "inconclusive: 29.1 µM [cytotoxic, single point]"},
      {"smiles": "NCCNc1ncnc2ccc(-c3ccc4c(c3)OCO4)cc12", "Potency": "inconclusive: 14.6 µM [cytotoxic, partial curve]"},
      {"smiles": "COC(=O)c1cc2c(-c3ccccc3)cc3ccccn3c-2c1C(=O)OC", "Potency": "inconclusive: 18.4 µM [cytotoxic, single point]"},
      {"smiles": "CCOC(=O)Cc1c(C)nc2c(-c3ccc(Cl)cc3)c[nH]n2c1=O", "Potency": "inconclusive: 25.9 µM [cytotoxic, single point]"},
      {"smiles": "O=C1c2ccccc2-c2nnc(-c3ccccc3)cc21", "Potency": "inconclusive: 18.4 µM [cytotoxic, single point]"},
      {"smiles": "COc1ccc(-c2cc(C(=O)N3CCN(S(=O)(=O)c4ccc(C)cc4)CC3)[nH]n2)cc1", "Potency": "inactive"},
      {"smiles": "O=C(/C=C/c1cccc([N+](=O)[O-])c1)n1cnc2ccccc21", "Potency": "inconclusive: 25.9 µM [cytotoxic, single point]"},
      {"smiles": "O=S(=O)(Nc1nc2ccccc2nc1Cl)c1ccccc1C(F)(F)F", "Potency": "inactive"},
      {"smiles": "O=C(Nc1ccc([N+](=O)[O-])cc1)c1cnn2c1NC(=C1CC1)C=C2C(F)F", "Potency": "inconclusive: 14.6 µM [rising, partial curve, poor fit]"},
      {"smiles": "CCOC(=O)Nc1ccc2c(c1)N(C(=O)CCN1CCOCC1)c1ccccc1S2=O", "note": "(stereo not drawn)", "Potency": "inconclusive: 23.1 µM [cytotoxic, single point]"},
      {"smiles": "COc1ccc(CCN(Cc2cc3cc(C)cc(C)c3nc2Cl)C(=O)C2CC2)cc1", "Potency": "inconclusive: 29.1 µM [cytotoxic, single point]"},
      {"smiles": "Cn1c(=O)c2c(nc(CN3CCc4ccccc4C3)n2CCCO)n(C)c1=O", "Potency": "inactive"},
      {"smiles": "C[C@@H]1CN([C@H](C)CO)C(=O)CCCn2nncc2CO[C@@H]1CN(C)S(=O)(=O)c1ccc2ccccc2c1", "Potency": "inactive"},
      {"smiles": "COc1cccc(Nc2nc(C(N)CO)cs2)n1", "note": "(stereo not drawn)", "Potency": "inactive"},
      {"smiles": "O=C(NCCc1c[nH]c2ccccc12)c1[nH]c(C(F)(F)F)nc1-c1ccccc1", "Potency": "inactive"},
      {"smiles": "O=S(=O)(ON(c1ccccc1)S(=O)(=O)c1ccccc1)c1ccccc1", "Potency": "inconclusive: 29.1 µM [cytotoxic, single point]"},
      {"smiles": "O=c1c2c3nc4ccccc4nc3n(Cc3ccccc3)c2ncn1Cc1ccco1", "Potency": "inconclusive: 29.1 µM [cytotoxic, single point]"},
      {"smiles": "Cc1ccc(NC(=O)Cn2cccc2)c(Br)c1", "Potency": "inconclusive: 23.1 µM [cytotoxic, single point]"},
      {"smiles": "COC(=O)[C@@]1(Cc2ccc(F)cc2)[C@H]2c3cc(C(=O)N4CCCC4)n(CCCNc4ncc(C(F)(F)F)cc4Cl)c3C[C@H]2CN1C(=O)c1ccccc1", "Potency": "inactive"},
      {"smiles": "COc1ccc(-c2nc3ccccc3c(=O)n2NC(=O)Cc2ccccc2)cc1", "Potency": "inactive"},
      {"smiles": "C=CCn1c(SCC(=O)NC2CCCC2)nnc1-c1ccncc1", "Potency": "inconclusive: 29.1 µM [rising, single point]"},
      {"smiles": "c1ccc(CCSc2ncnc3nc[nH]c23)cc1", "Potency": "inconclusive: 18.4 µM [cytotoxic, partial curve]"},
      {"smiles": "Cc1cc(C)cc(NC(=S)Nc2cccc3ccccc23)c1", "Potency": "inactive"},
      {"smiles": "Cc1ccc(NC(=O)c2c(C)nn(-c3ccccc3)c2Cl)cc1", "Potency": "inactive"},
      {"smiles": "COc1ccc(C)cc1NC(=O)CSc1ccc(-c2sc(C)nc2C)nn1", "Potency": "inconclusive: 32.6 µM [cytotoxic, single point]"},
      {"smiles": "CCCCCCCCCC(=O)NNC(=O)c1c(O)c2ccccc2n(CC)c1=O", "Potency": "inconclusive: 20.6 µM [cytotoxic, partial curve, poor fit]"},
      {"smiles": "c1ccc(Cc2cc[n+](Cc3ccccn3)cc2)cc1", "Potency": "inconclusive: 13 µM [cytotoxic, partial curve]"},
      {"smiles": "CCOC(=O)c1c(C)[nH]c(N=Nc2cccc(C)c2)c1C", "Potency": "inconclusive: 10.3 µM [rising, partial curve, poor fit]"},
      {"smiles": "O=C(Nc1ccc(N2CCN(C(=O)c3ccco3)CC2)c(Cl)c1)c1cccs1", "Potency": "inconclusive: 18.4 µM [cytotoxic, single point]"},
      {"smiles": "C[C@H](CO)N1C[C@H](C)[C@H](CN(C)S(=O)(=O)c2cccs2)Oc2ccc(NC(=O)Nc3ccc4c(c3)OCO4)cc2CC1=O", "Potency": "inconclusive: 29.1 µM [cytotoxic, single point]"},
      {"smiles": "O=C(Nc1nnc(-c2cccs2)o1)C1CC1", "Potency": "inactive"},
      {"smiles": "CCOC(=O)c1cnc(-n2nc(C)cc2C)nc1NCc1ccc2c(c1)OCO2", "Potency": "inconclusive: 29.1 µM [cytotoxic, single point]"},
      {"smiles": "CC(C)(C)c1ccc(S(=O)(=O)Nc2ccc(Cc3ccncc3)cc2)cc1", "Potency": "inconclusive: 25.9 µM [cytotoxic, single point]"},
      {"smiles": "Nc1nonc1-c1nc2ccccc2n1CC(=O)Nc1ccccc1C(=O)O", "Potency": "inconclusive: 29.1 µM [cytotoxic, single point]"},
      {"smiles": "COc1ccc(-c2csc(Cc3nnc(N4CCOCC4)n3-c3ccccc3)n2)cc1OC", "Potency": "inactive"},
      {"smiles": "Cc1sc2nc(SCC(=O)C(C)(C)C)n(Cc3ccco3)c(=O)c2c1C", "Potency": "inconclusive: 4.11 µM [cytotoxic, full curve]"},
      {"smiles": "N#Cc1ccccc1Cn1c(SCC(=O)NCc2ccccc2)nc2ccccc21", "Potency": "inactive"},
      {"smiles": "Cc1cc(Cl)ccc1OCCCC(=O)NNC(=O)c1ccccc1O", "Potency": "inconclusive: 29.1 µM [cytotoxic, single point]"},
      {"smiles": "Cc1c(C(=O)NCc2ccc3c(c2)OCCO3)sc(=O)n1Cc1cccc(C(F)(F)F)c1", "Potency": "inconclusive: 18.4 µM [cytotoxic, partial curve]"},
      {"smiles": "COc1ccc(C2C(C(=O)OC(C)C)=C(C)N=c3s/c(=C\\c4cccs4)c(=O)n32)cc1", "note": "(stereo not drawn)", "Potency": "inconclusive: 20.6 µM [cytotoxic, single point]"},
      {"smiles": "COc1ccc(CNC(=O)Oc2ccccc2)cc1Cl", "Potency": "inactive"},
      {"smiles": "Fc1cc(F)cc(-c2c(-c3ccccc3)ncc3ccc(F)cc23)c1", "Potency": "inconclusive: 20.6 µM [cytotoxic, single point]"},
      {"smiles": "O=C(NC1CCCCCC1)c1cc(S(=O)(=O)N2CCC3(CC2)OCCO3)ccc1F", "Potency": "inconclusive: 20.6 µM [cytotoxic, single point]"},
      {"smiles": "NS(=O)(=O)c1ccc(NC(=O)/C=C/c2cn(-c3ccccc3)nc2-c2cccc(Cl)c2)cc1", "Potency": "inconclusive: 29.1 µM [cytotoxic, partial curve, poor fit]"},
      {"smiles": "O=C(NCC1CCCO1)c1ccc(N2C(=O)C3CCCCC3C2=O)cc1", "note": "(stereo not drawn)", "Potency": "inactive"},
      {"smiles": "CCOc1ccc(S(=O)(=O)N2CCN(C)CC2)cc1NC(=O)c1ccccc1F", "Potency": "inconclusive: 0.291 µM [cytotoxic, full curve, poor fit]"},
      {"smiles": "S=C(NCc1ccc(Cl)cc1)NC1CCN(Cc2ccccc2)CC1", "Potency": "inconclusive: 29.1 µM [cytotoxic, single point]"},
      {"smiles": "C/C(=C\\c1ccccc1)CN1CCN(C)CC1", "Potency": "inactive"},
      {"smiles": "O=C(Cc1cccc2ccccc12)NCC(=O)N1CCN(Cc2cccc(C(F)(F)F)c2)CC1", "Potency": "inconclusive: 18.4 µM [cytotoxic, partial curve, poor fit]"},
      {"smiles": "O=C1c2cccnc2-c2ncccc21", "Potency": "inactive"},
      {"smiles": "COC1(OC)C(/C=C/c2ccc(Cl)cc2)C(C#N)(C#N)C1(OC)OC", "note": "(stereo not drawn)", "Potency": "inconclusive: 32.6 µM [cytotoxic, single point]"},
      {"smiles": "Cc1cccc(-n2c(SCc3cc(=O)n4ccsc4n3)nc3ccccc32)c1", "Potency": "inconclusive: 18.4 µM [cytotoxic, single point]"},
      {"smiles": "O=C(/C=C/c1ccco1)NC(=S)Nc1ccccc1O", "Potency": "inconclusive: 18.4 µM [cytotoxic, single point]"},
      {"smiles": "COc1ccccc1NC(=O)c1cc(S(=O)(=O)N(C)C2CCCCC2)ccc1F", "Potency": "inactive"},
      {"smiles": "O=C(NNC1=C(C(=O)C(F)(F)F)CCC1)c1ccccc1Cl", "Potency": "inconclusive: 29.1 µM [cytotoxic, single point]"},
      {"smiles": "Cc1cc(C(=O)N/N=C/c2ccc([N+](=O)[O-])s2)n[nH]1", "Potency": "inconclusive: 32.6 µM [cytotoxic, single point]"},
      {"smiles": "COc1ccc(CN(C2CCCCC2C)S(=O)(=O)c2ccc(S(=O)(=O)N(C)C)cc2)cc1OC", "note": "(stereo not drawn)", "Potency": "inactive"}
    ]}
  ]
}
